# Results: patent publication US20150159115A1, “PURIFICATION OF DPA ENRICHED OIL” (Omega Protein Corporation, priority 2013, published 2015)
# “Also recorded” adds a separate entry of the source. At least one structure is not confirmed: it was looked up by name or label, or the drawing left a doubt.
# How the values were obtained:
# LDLr−/− mice [1] = experiment: Serum glucose in LDLr−/− mice on atherogenic diet; assay type: in vivo, mouse; conditions: in words; 20 weeks
# LDLr−/− mice [2] = experiment: Aorta lipid and cholesterol (TC, FC, CE) deposition in LDLr−/− mice; assay type: in vivo, mouse; conditions: P<0.10
Structure (SMILES),"Serum (blood, fasting) glucose, comparison between treatments (LDLr−/− mice [1])","Aortic TC, FC and CE, effect of the diet (LDLr−/− mice [2])"
"CC/C=C\C/C=C\C/C=C\C/C=C\C/C=C\CCCCCC(=O)O [DPA, docosapentaenoic acid]",significantly lower glucose in blood than control and all other treatments; also recorded: the only omega-3 showing lower fasting glucose level than control,–
"CC/C=C\C/C=C\C/C=C\C/C=C\C/C=C\CCCC(=O)O [EPA, eicosapentaenoic acid]",–,decreased
